Laboratory results published in PubChem BioAssay AID2685 (National Center for Advancing Translational Sciences (NCATS), 2010).
The other results are listed elsewhere or left out. Further columns of the screen follow, without active or inactive calls. The list favours compounds with an active or inconclusive main result. Words in brackets tell the shape of the fitted curve; partial curves, single points and poor fits give uncertain potencies.

Assay: qHTS Assay for Lipid Storage Modulators in Drosophila S3 Cells;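 as to cell number change: cells counted by Cell Tracker Red CMTPX staining in the red channel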
Settings: BODIPY lipid droplet fluorescence, 18-24 h; for cell number change: measured here: cell count max response, cells fed with added oleic acid
In short: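 Laser-scanning cytometry quantifies lipid droplet accumulation (500–530 nm total intensity; droplet/cell object ratio) in oleic acid-fed (400 uM added) Drosophila S3 cells treated with a concentration series. 20 uM Triacsin C defined 100% inhibition.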

[1] = measured here: lipid fluorescence (Fed channel) AC50, cells fed with added oleic acid
[2] = measured here: cell number channel AC50, cells fed with added oleic acid

Cc1ccc(N=Cc2c(O)ccc3ccccc23)cc1F
cell number change: -26.7% | AC50 [1]: 5.17 nM [falling, full curve, poor fit]

Cc1ccc(CN2CCN(Cc3ccccc3)C(CCO)C2)s1 (configuration not stated)
cell number change: -34.7% | AC50 [2]: 11.6 nM [falling, full curve, poor fit] | AC50 [1]: 259 nM [falling, full curve, poor fit]

COc1ccc(Br)cc1C(=O)Nc1ccc(N2CCN(S(C)(=O)=O)CC2)cc1
AC50 [2]: 2910 nM [rising, partial curve] | AC50 [1]: 2310 nM [rising, partial curve]

CC1CC1C(=O)OCC(=O)NNC(=O)COc1ccc(Br)cc1 (configuration not stated)
cell number change: -50.6% | AC50 [2]: 16400 nM [falling, single point]

O=C(NCCc1csc(-c2cccnc2)n1)c1cccc2ccccc12
cell number change: 22.8% | AC50 [2]: 164 nM [rising, full curve, poor fit] | AC50 [1]: 130 nM [rising, full curve, poor fit]

CC(=O)Nc1c(Nc2ccccc2)c2ccccc2oc1=O
cell number change: 8.96% | AC50 [1]: 9200 nM [rising, partial curve, poor fit]

CCOc1ccc(S(=O)(=O)N2CCOCC2)cc1NC(=O)C1CCC1
cell number change: 6.16% | AC50 [1]: 5.17 nM [rising, full curve, poor fit]

C=CCn1c(=O)c(C(=O)NCCc2ccccc2)c(O)c2ccccc21
cell number change: -0.0718% | AC50 [1]: 1160 nM [rising, partial curve]

O=C1CCC(=O)N1CCc1c[nH]c2ccccc12
cell number change: 4.27% | AC50 [1]: 82 nM [falling, full curve]

Cn1nc(C(F)(F)F)c2cc(NC(=O)OCc3ccc(F)cc3)sc21
cell number change: -29.6% | AC50 [1]: 29100 nM [falling, single point]

COc1cccc(-n2c(SCC(=O)Nc3cc(C)on3)nc3c([nH]c4ccccc43)c2=O)c1
cell number change: 13.4% | AC50 [1]: 65.1 nM [rising, full curve, poor fit]

Cc1ccccc1OCCn1c(CCNC(=O)C(C)C)nc2ccccc21
cell number change: -3.62% | AC50 [1]: 461 nM [rising, partial curve]

Cc1ccccc1N(C(=O)CNC(=O)c1ccco1)C(C(=O)NC1CCCCC1)c1ccncc1 (configuration not stated)
cell number change: 6.52%

CC(=O)Nc1cccc(C(=O)OCC(=O)c2ccc3c(c2)OCO3)c1
AC50 [2]: 3260 nM [rising, single point]

O=C(c1cc(S(=O)(=O)N2CCOCC2)ccc1Cl)N1CCN(c2ccccn2)CC1
AC50 [2]: 146 nM [rising, single point] | AC50 [1]: 103 nM [rising, partial curve, poor fit]

COc1ccc(C(=O)COC(=O)c2cnc(C)cn2)cc1OC
cell number change: -0.968% | AC50 [1]: 2060 nM [rising, full curve]

COc1ccc(N(C(=O)C2CCCCC2)C2C=CS(=O)(=O)C2)c(OC)c1 (configuration not stated)
AC50 [2]: 6510 nM [rising, single point] | AC50 [1]: 6510 nM [rising, single point]

Cc1cc([N+](=O)[O-])ccc1-c1ccc(/C=N/NC(=O)Cc2ccccc2)o1
cell number change: -15.6% | AC50 [1]: 20600 nM [falling, single point]

COc1cc(C(=O)N2CCN(C(=O)Cc3ccccc3)CC2)cc(OC)c1OC
cell number change: 10% | AC50 [1]: 29100 nM [rising, single point]

COc1ccc(NC(=S)SC)cc1OC
cell number change: 17.9% | AC50 [2]: 517 nM [rising, partial curve, poor fit] | AC50 [1]: 580 nM [rising, single point]

Cc1ccc(S(=O)(=O)N2CCC(=O)N(CCOC(=O)Nc3cc(C)cc(C)c3)CC2)cc1
cell number change: 23.5% | AC50 [1]: 9200 nM [rising, partial curve]

COc1ccc(OC)c(/C=N/NC(=O)CC(=O)NC2CCCCC2)c1
cell number change: -27% | AC50 [1]: 6510 nM [rising, single point]

CC(C)C[C@H](NC(=O)[C@@H]1O[C@H]1C(=O)O)C(=O)NCCCCN=C(N)N
cell number change: -15.7% | AC50 [1]: 651 nM [falling, full curve, poor fit]

COc1cccc(-c2c(-c3cc(OC)cc(OC)c3)n(C)c3ccc(-c4cccc5[nH]ccc45)cc23)c1
cell number change: 7.89%

CCOC(=O)CSc1nc2c(c(-c3ccc(C)o3)c1C#N)CCCC2
cell number change: -21.2% | AC50 [1]: 4110 nM [falling, full curve, poor fit]

CCCC(=O)Nc1nnc(CCc2ccccc2)s1
cell number change: 4.93% | AC50 [1]: 2060 nM [rising, partial curve, poor fit]

Cc1nc(N2CCN(C(=O)c3ccco3)CC2)nc2c1C(=O)CCC2
cell number change: -4.86% | AC50 [1]: 4610 nM [falling, single point]

CC1CCN(c2ccc(N3C(=O)C4CCCCC4C3=O)cc2[N+](=O)[O-])CC1 (configuration not stated)
cell number change: -24.6% | AC50 [1]: 731 nM [falling, full curve]

Cc1ccc(S(=O)(=O)N(C)C)cc1NC(=O)CN1CCCC1
cell number change: -3.85% | AC50 [1]: 461 nM [falling, partial curve]

Nc1nc(CC(=O)CSc2ccc(Cl)cc2)nc(Nc2ccc(F)cc2)n1
cell number change: -11.8% | AC50 [2]: 2910 nM [falling, single point] | AC50 [1]: 6510 nM [falling, single point]

C=CCNC(=O)C1CCN(S(=O)(=O)c2ccccc2)CC1
cell number change: -82.7% | AC50 [2]: 23100 nM [falling, single point]

CCOc1cc(/C=N/NC(=O)C2CC2)ccc1OC(C)C
cell number change: 10.1% | AC50 [2]: 820 nM [rising, single point] | AC50 [1]: 731 nM [rising, single point]

COCCNC(=O)CSC1=N/C(=C/c2ccc(Cl)c(Cl)c2)C(=O)N1c1ccccc1F
cell number change: -21.1% | AC50 [1]: 29100 nM [falling, single point]

Cc1cc(C)n(-c2cc(N3CCN(S(=O)(=O)c4ccc(Br)cc4)CC3)ccc2[N+](=O)[O-])n1
AC50 [2]: 6510 nM [rising, single point]

Cc1cccc(NS(=O)(=O)c2cc(C(=O)N3CCN(C)CC3)ccc2C)c1
cell number change: 5.95%

CCCn1nc(NS(=O)(=O)c2ccccc2)c2cc3ccccc3nc21
cell number change: 0.914% | AC50 [1]: 164 nM [rising, full curve, poor fit]
